This is an account of results in article PMC7819943, “Rice protein-binding microarrays: a tool to detect cis-acting elements near promoter regions in rice”.

This is one part of the list.

The test concerns the target T1, OsSMF1 (Oryza sativa, UniProt Q6ZLB0 1-436).
T1 sequence: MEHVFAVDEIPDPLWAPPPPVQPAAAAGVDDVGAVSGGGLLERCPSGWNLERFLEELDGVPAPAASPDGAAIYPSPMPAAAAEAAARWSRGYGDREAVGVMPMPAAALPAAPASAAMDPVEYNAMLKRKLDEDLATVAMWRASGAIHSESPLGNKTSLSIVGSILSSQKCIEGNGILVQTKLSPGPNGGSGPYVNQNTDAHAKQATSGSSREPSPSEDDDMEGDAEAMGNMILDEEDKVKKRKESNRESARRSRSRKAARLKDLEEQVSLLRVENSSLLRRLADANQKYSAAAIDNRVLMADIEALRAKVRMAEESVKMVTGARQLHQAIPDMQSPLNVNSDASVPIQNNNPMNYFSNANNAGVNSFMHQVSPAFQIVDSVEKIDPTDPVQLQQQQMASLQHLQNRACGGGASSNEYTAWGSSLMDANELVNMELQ
Description: protein-binding microarray (RPBM); PBS, 2% BSA, 51.3 ng/ul salmon testes DNA, 50 uM zinc acetate, 200 nM TF, 25 C, 1 h; high values mean tight binding. The note with it: protein: recombinant; tags: N-terminal polyhistidine and DsRed monomer fusion (pET32a); chain copies: 2; label: CyDye5-dUTP incorporated in the synthesized complementary strand; 3' TTTTT single-stranded linker to array surface; dsDNA, one strand shown. An outline of the steps: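 The binding signal is fluorescence intensity per feature, in arbitrary units, read on an Axon 4000B scanner. Polyhistidine- and DsRed-tagged transcription factors (N-terminal fusions) from E. coli BL21-CodonPlus were purified on Ni–NTA and applied at 200 nM for 1 h at 25 °C to a double-stranded, BSA-blocked custom Agilent array in buffer with 50 µM zinc acetate.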
Take “CAGGCGCCACTACTGATGCGTCACTGTCAGTGTGGGCCCCCGGAGTCACCTAGTGCAG”: the binding signal was 19400 fluorescence intensity (a.u.).
“GGGGTGGAAGTCCGTCTACTGCGTCACCCACCGCGACGCCCGGAGTCACCTAGTGCAG”: the binding signal is 4030 fluorescence intensity (a.u.).
As to “GTCAGTCCTTGTCACGTTTGCTACGGCCATCCCGTCCAATCGGAGTCACCTAGTGCAG”, the binding signal is 4200 fluorescence intensity (a.u.).
With “TGTTACGCGTCTCCACGTGCCTCCTCTCCCTCCACCGGACCGGAGTCACCTAGTGCAG” the figure was 6880 fluorescence intensity (a.u.); with “CTTAGTGTCGATCAACCTCCTTAGCTCGATGATGCAGCGTCGGAGTCACCTAGTGCAG”, 3350 fluorescence intensity (a.u.); with “TACTTGAAATTCTTGTCATTGACATGTAGGGCAGATTGCACGGAGTCACCTAGTGCAG”, 3630 fluorescence intensity (a.u.).
Under “AGATGGCTTGTCGTGGCTGCTGTGGCGCATGTACCCGGATCGGAGTCACCTAGTGCAG” stands 3390 fluorescence intensity (a.u.); under “ACGTAATGTGTGTATGACAGGTAAGATTAGGTATTAATAGCGGAGTCACCTAGTGCAG”, 4950 fluorescence intensity (a.u.); under “GATAGTTCAGTGGCAAAGGATACGTGGTTTCAACCCCGATCGGAGTCACCTAGTGCAG”, 4380 fluorescence intensity (a.u.).
Under “TGCTACTCGTCACCAGATGTTTCATAGGTCCAACTAGGGGCGGAGTCACCTAGTGCAG” stands 3370 fluorescence intensity (a.u.).
As for “TCCTAATTTCACACCGTCTCTTCCTTGTAACCATCTGAAACGGAGTCACCTAGTGCAG”, the binding signal was 3500 fluorescence intensity (a.u.).
With “GCAAATTGCCACGTAAGCGCCACGTCAGATCGAGACCGAGCGGAGTCACCTAGTGCAG” the figure was 28900 fluorescence intensity (a.u.); with “AGCACTTAACGGAGGGTTGCTGGCGAAACCTTAACGGCAACGGAGTCACCTAGTGCAG”, 7000 fluorescence intensity (a.u.); with “AGGGAGAATTGATTATCAGCATGGCAATGGAGGAACATGCCGGAGTCACCTAGTGCAG”, 3580 fluorescence intensity (a.u.).
With “CGCATTGTACTAATTAATGACAGGAATGAGGATTATTATGCGGAGTCACCTAGTGCAG” the figure was 14800 fluorescence intensity (a.u.).
Under “GATAACCTTGTGACTTGTTTTGACGTGTGACGTTGGCGGACGGAGTCACCTAGTGCAG” stands 11200 fluorescence intensity (a.u.).
As for “CGCTCCCAGTCAGCGTGCCACGTCAGACGGTCAATGTGCCCGGAGTCACCTAGTGCAG”, the binding signal was 33800 fluorescence intensity (a.u.).
As for “ACACACACACACACACACACACACACACACACACACACACCGGAGTCACCTAGTGCAG”, the binding signal is 5250 ± 404 fluorescence intensity (a.u.).
Under “ACAGCAATGTCAGACATAAACTTATTCCATCTTGCACTTTCGGAGTCACCTAGTGCAG” stands 3410 fluorescence intensity (a.u.).
Turning to “CGCCGTGACAATTCCCGCTGTATCATCCGTTGTTCGGATCCGGAGTCACCTAGTGCAG”, the binding signal is 3200 fluorescence intensity (a.u.).
Regarding “TAAGTGGACCTATAGGTGCACACGTGGGGAGAGGGGCGTGCGGAGTCACCTAGTGCAG”, the binding signal is 5690 fluorescence intensity (a.u.).
Under “GCCGAGACCAAGGCCGCTCTCCACGTCGATTCTCCAGTGTCGGAGTCACCTAGTGCAG” stands 5640 fluorescence intensity (a.u.); under “ACCCAGATCGTCTAGCCCACCACCTTATGGAGTTAGTCGGCGGAGTCACCTAGTGCAG”, 6100 fluorescence intensity (a.u.).
With “CCCCACAGCCCCACTCGGGACCAAACACACCACACCCCGCCGGAGTCACCTAGTGCAG” the figure was 3180 fluorescence intensity (a.u.); with “TGTCACCGTCGTCGACGTCAGCTACAACTGCCTCTCCGGCCGGAGTCACCTAGTGCAG”, 7220 fluorescence intensity (a.u.).
With “AAAGCACACACACTCTCTCTTAAGCGTCACTTCAGAGGTTCGGAGTCACCTAGTGCAG” the figure was 4930 fluorescence intensity (a.u.); with “CTCCCACCCACTCACCGTTTCCACCCGAATCATTCCGTCCCGGAGTCACCTAGTGCAG”, 8610 fluorescence intensity (a.u.).
Turning to “ACTTCTCCTTGAGCCAGAATGACACATTAACACTGTCAACCGGAGTCACCTAGTGCAG”, the binding signal was 3720 fluorescence intensity (a.u.).
“CTACGGAATGTCAGTCAGCTCTGATATGTCGATTGTAGTGCGGAGTCACCTAGTGCAG”: the binding signal was 3690 fluorescence intensity (a.u.).
“GAGCGGTGGTGACAGTGCGTGGAACGACAGCTAGTGGTTGCGGAGTCACCTAGTGCAG”: the binding signal was 4260 fluorescence intensity (a.u.).
Take “TTATTAAGCCTAATTAATCCATCATTAGTAAATATTTACTCGGAGTCACCTAGTGCAG”: the binding signal is 3780 fluorescence intensity (a.u.).
Under “CATGACATCGTCATTGACCGTGTCATCGTCAAGATGGATGCGGAGTCACCTAGTGCAG” stands 8800 fluorescence intensity (a.u.); under “CAATCTCTTGACTATTTCTGCTGTCCAAGTCCAACAACGCCGGAGTCACCTAGTGCAG”, 3320 fluorescence intensity (a.u.).
On to “TCTTGCAATGATGTGTGTGTGCATGTGTTTGTCTGTGCTACGGAGTCACCTAGTGCAG”, for which the binding signal was 3780 fluorescence intensity (a.u.).
With “GGTGGTGAGACGTTGACGTGGTGGCTACGTATCAAAGGTGCGGAGTCACCTAGTGCAG” the figure was 9640 fluorescence intensity (a.u.); with “AATTTTCGTCCCTTGACCGCAAAACCGAGTATGACCCGTCCGGAGTCACCTAGTGCAG”, 3240 fluorescence intensity (a.u.); with “GTGAGGTCCACTAAGGTGTCATATGTCATGTAGTCACCTCCGGAGTCACCTAGTGCAG”, 4820 fluorescence intensity (a.u.).
On to “GAATGCATACAGAGAGAGGCACTAATTGACGCGGGATCTCCGGAGTCACCTAGTGCAG”, for which the binding signal is 3610 fluorescence intensity (a.u.).
Under “ATTTCTGGGCGTGACGCCGCCTCCCCTACATCATACAAACCGGAGTCACCTAGTGCAG” stands 4460 fluorescence intensity (a.u.); under “AGAGCCAGCGAGACGCCGGCATAGCTTGTACACGGTGGCTCGGAGTCACCTAGTGCAG”, 3800 fluorescence intensity (a.u.).
Under “GCCGCCGCCCTCCCCTTCTCCCACGTCACCGGCGACCTCCCGGAGTCACCTAGTGCAG” stands 18500 fluorescence intensity (a.u.); under “GCGAGAAACAACAGCGCCCACGCCGCCACGCCGCCAGGCTCGGAGTCACCTAGTGCAG”, 3700 fluorescence intensity (a.u.).
